Measurements taken from patent US11324832B2 (Endosome Therapeutics, Inc., priority 2015, dated 2022).

Test: general procedure: Fmoc solid-phase peptide synthesis; NovaSyn TG R resin; HCTU or HBTU with DIPEA; PyBOP/DIPEA
Settings: whole synthesis, scale 100 mg resin portion of 0.18 mmol synthesis

## VTHRLAGLLSRSGGVVKDNFVPTNVGSEAF-NH2
  isolated mass: 7 mg
